This passage reports binding results from paper PMC5770445.

No constants are given. Whether binding was seen depends on the method and setting. Binding seen in cells or lysates may run through a third protein. These calls come from enrichment with a bait or labelling near it, and not all partners need be listed.

In the test the target is His-CSK29544_02616 (His×6-tagged CSK29544_02616 product, Labp) (C. sakazakii). As to the kind of experiment: affinity purification with mass spectrometry; ligand fishing: 1 mg His-CSK29544_02616 as bait mixed with cell lysate of ΔCSK29544_02616, Ni-NTA resin, 4 °C, 1 h; washed with 20 mM Tris-Cl, 300 mM NaCl, 10 mM imidazole, pH 8.0; eluted with 250 mM imidazole; band cut from SDS-PAGE gel, LC-MS/MS; only the target purified.

B1: LpxA (UDP-GlcNAc acyltransferase), endogenous (enzyme, UniProt A7MI18 1-262)
chain: MIDKTAFIHPTAIVEEGAVIGANAHIGPFCIVGPDVKIGEGTVLKSHVVVNGHTTIGRDNEIYQFASIGEVNQDLKYAGEPTRVEIGDRNRIRESVTIHRGTAQGGGLTKVGSDNLLMINAHVAHDCTVGNRCILANNATLAGHVSVDDFAIIGGMTAVHQFCIIGAHVMVGGCSGVAQDVPPYVIAQGNHATPFGVNIEGLKRRGFSKEALHAIRNAYKLLYRSGKTLDEVKPEIAEIAAKHPEVQPFYDFFARSTRGLIR
Regarding B1, the binding entry is “binds”.
